Data source: PubChem BioAssay AID1159578 (Peter MacCallum Cancer Centre, 2015)

- Aim: 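Knock-downs that alter how fast lymphatic endothelial cells migrate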 (primary screen)
- Cell system: human lymphatic endothelial cells
- Reagent: siRNA pool against human genes, 40 nM
- Timing: 48 h after transfection
- Measured: 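Cells stained with dye and imaged after a scratch; covered wound area and nuclei counted, duplicates averaged, migration set against mock wells and turned into a robust z-score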
- Reading the numbers: migration robust z-score: higher = faster migration into the scratch; migration relative to mock: higher = more scratch area covered than mock; nuclei per well: higher = more cells in the well
- Active means: 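Migration changed when robust z exceeds 2 or falls below -2 and mean nuclei number is at least 3300; otherwise not called changed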
- Calls: active = migration changed; inactive = no migration change, or too few cells
This is one part, drawn at random, of about 18,000 reagents. About 1,030 of all reagents (5.7%) count as active. 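Inactive calls also include pools with fewer than 3300 nuclei, whose migration was not assessed.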 Raw values are not corrected between plates. Unmarked entries are inactive.

no.	Target gene	migration robust z-score	migration class with cell-count check	migration relative to mock	nuclei per well, duplicate mean
1	RPP21 (ribonuclease P subunit p21)	0.32	migration z between -2 and 2; enough cells	0.97	5920
2	SNRNP27 (small nuclear ribonucleoprotein U4/U6.U5 subunit 27)	-0.86	migration z between -2 and 2; enough cells	0.64	5237
3	DEFB132 (defensin beta 132)	1.23	migration z between -2 and 2; enough cells	1.2	6110
4	DGCR6 (DiGeorge syndrome critical region gene 6)	1.64	migration z between -2 and 2; enough cells	1.31	6296
5	H2AC17 (H2A clustered histone 17)	0.32	migration z between -2 and 2; enough cells	0.97	5142
6	LCN1 (lipocalin 1)	-0.5	migration z between -2 and 2; enough cells	0.76	7450
7	BCAP29 (B cell receptor associated protein 29)	-1.06	migration z between -2 and 2; enough cells	0.6	5158
8	ADAM12 (ADAM metallopeptidase domain 12)	-0.78	migration z between -2 and 2; enough cells	0.66	5792
9	TRIM55 (tripartite motif containing 55)	0.5	migration z between -2 and 2; enough cells	0.9	5100
10	RUSC1 (RUN and SH3 domain containing 1)	-0.2	migration z between -2 and 2; enough cells	0.83	5277
11	PPP1R1C (protein phosphatase 1 regulatory inhibitor subunit 1C)	-0.91	migration z between -2 and 2; enough cells	0.63	4987
12	CALML4 (calmodulin like 4)	1.04	migration z between -2 and 2; enough cells	1.16	6864
13	LRRC49 (leucine rich repeat containing 49)	-0.1	migration z between -2 and 2; enough cells	0.86	5742
14	TIGAR (TP53 induced glycolysis regulatory phosphatase)	1.61	migration z between -2 and 2; enough cells	1.12	6956
15	TMEM14B (transmembrane protein 14B)	-0.55	migration z between -2 and 2; enough cells	0.74	4872
16	TPH1 (tryptophan hydroxylase 1)	0.26	migration z between -2 and 2; enough cells	0.86	5970
17	RBM4B (RNA binding motif protein 4B)	-0.84	migration z between -2 and 2; enough cells	0.66	5808
18	RERG (RAS like estrogen regulated growth inhibitor)	0.13	migration z between -2 and 2; enough cells	0.83	7393
19	CHUK	-1.42	migration z between -2 and 2; enough cells	0.53	4527
20	CTPS1 (CTP synthase 1)	0.38	migration z between -2 and 2; enough cells	0.88	5294
21	NPPC (natriuretic peptide C)	0.26	migration z between -2 and 2; enough cells	0.95	4945
22	ADIPOQ (adiponectin, C1Q and collagen domain containing)	0.41	migration z between -2 and 2; enough cells	0.99	5525
23	GSTA3 (glutathione S-transferase alpha 3)	1.19	migration z between -2 and 2; enough cells	1.04	6346
24	ACTL6B (actin like 6B)	0.45	migration z between -2 and 2; enough cells	1	5698
25	TSR1 (TSR1 ribosome maturation factor)	-0.24	migration z between -2 and 2; enough cells	0.82	3830
26	EXOC5 (exocyst complex component 5)	0.43	migration z between -2 and 2; enough cells	1	6201
27	MMAB (metabolism of cobalamin associated B)	-0.65	migration z between -2 and 2; enough cells	0.68	5866
28	S100A9 (S100 calcium binding protein A9)	0.24	migration z between -2 and 2; enough cells	0.94	7002
29	U2AF1 (U2 small nuclear RNA auxiliary factor 1)	1.38	migration z between -2 and 2; enough cells	1.25	7579
30	HM13 (histocompatibility minor 13)	-0.65	migration z between -2 and 2; enough cells	0.68	5492
31	FAM187B (family with sequence similarity 187 member B)	2.08 (active)	migration z above 2; enough cells	1.42	7802
32	MEF2C (myocyte enhancer factor 2C)	0.24	migration z between -2 and 2; enough cells	0.85	6728
33	PDCD1 (programmed cell death 1)	0.97	migration z between -2 and 2; enough cells	1.14	5462
34	SIRPD (signal regulatory protein delta)	1.81	migration z between -2 and 2; enough cells	1.36	6060
35	MBD3L2 (methyl-CpG binding domain protein 3 like 2)	0.27	migration z between -2 and 2; enough cells	0.96	6084
36	MYL4 (myosin light chain 4)	-2.44 (active)	migration z below -2; enough cells	0.26	4510
37	MTF2 (metal response element binding transcription factor 2)	-0.68	migration z between -2 and 2; enough cells	0.68	4634
38	SNX27 (sorting nexin 27)	-1.44	migration z between -2 and 2; enough cells	0.52	4595
39	PLEKHH1 (pleckstrin homology, MyTH4 and FERM domain containing H1)	0.37	migration z between -2 and 2; enough cells	0.98	5858
40	ACE2 (angiotensin converting enzyme 2)	2.13 (active)	migration z above 2; enough cells	1.21	5839
41	NPY (neuropeptide Y)	0.44	migration z between -2 and 2; enough cells	0.89	5391
42	OCM2 (oncomodulin 2)	-0.27	migration z between -2 and 2; enough cells	0.82	4853
43	MYORG (myogenesis regulating glycosidase)	0.86	migration z between -2 and 2; enough cells	1.11	5419
44	OR5M9 (olfactory receptor family 5 subfamily M member 9)	0.85	migration z between -2 and 2; enough cells	1.1	5746
45	PLAC8L1 (PLAC8 like 1)	-1.52	migration z between -2 and 2; enough cells	0.49	6271
46	PSMA5 (proteasome 20S subunit alpha 5)	0.18	migration z between -2 and 2; enough cells	0.84	5413
47	MAGIX (MAGI family member, X-linked)	-1.31	migration z between -2 and 2; enough cells	0.55	4297
48	PPFIA2 (PPFI scaffold protein A2)	2.08 (active)	migration z above 2; enough cells	1.21	3865
49	PLVAP (plasmalemma vesicle associated protein)	-1.56	migration z between -2 and 2; enough cells	0.48	4700
50	TUBA3D (tubulin alpha 3d)	0.26	migration z between -2 and 2; enough cells	0.95	4855
51	OR1D2 (olfactory receptor family 1 subfamily D member 2)	-1.5	migration z between -2 and 2; enough cells	0.5	5652
52	HORMAD2 (HORMA domain containing 2)	0.46	migration z between -2 and 2; enough cells	1	8316
53	MAP3K7 (mitogen-activated protein kinase kinase kinase 7)	-0.44	migration z between -2 and 2; enough cells	0.72	3920
54	HEMK2	1.27	migration z between -2 and 2; enough cells	1.05	5440
55	LILRA6 (leukocyte immunoglobulin like receptor A6)	0.92	migration z between -2 and 2; enough cells	1.12	5961
56	OR2T4 (olfactory receptor family 2 subfamily T member 4)	1.14	migration z between -2 and 2; enough cells	1.18	5246
57	DHDDS (dehydrodolichyl diphosphate synthase subunit)	0.8	migration z between -2 and 2; enough cells	0.96	6528
58	INS (insulin)	-0.1	migration z between -2 and 2; enough cells	0.86	5552
59	GAPDH (glyceraldehyde-3-phosphate dehydrogenase)	-0.88	migration z between -2 and 2; enough cells	0.64	5800
60	DCAF4L1 (DDB1 and CUL4 associated factor 4 like 1)	-0.83	migration z between -2 and 2; enough cells	0.68	5736
61	ABCC3 (ATP binding cassette subfamily C member 3)	-3.07 (active)	migration z below -2; enough cells	0.22	4820
62	SPACA5B (sperm acrosome associated 5B)	0.02	migration z between -2 and 2; enough cells	0.89	6055
63	MRFAP1L1 (Morf4 family associated protein 1 like 1)	0.68	migration z between -2 and 2; enough cells	1.06	6209
64	ACVRL1 (activin A receptor like type 1)	-1.64	migration z between -2 and 2; enough cells	0.49	4450
65	CYP3A4 (cytochrome P450 family 3 subfamily A member 4)	0.08	migration z between -2 and 2; enough cells	0.82	4688
66	SLC7A7	1.3	migration z between -2 and 2; enough cells	1.06	5566
67	CHD9 (chromodomain helicase DNA binding protein 9)	0.88	migration z between -2 and 2; enough cells	0.98	5446
68	KTN1 (kinectin 1)	-0.97	migration z between -2 and 2; enough cells	0.64	6158
69	SUPT16H (SPT16 homolog, facilitates chromatin remodeling subunit)	0.42	migration z between -2 and 2; enough cells	0.88	5737
70	HMMR (hyaluronan mediated motility receptor)	1.9	migration z between -2 and 2; enough cells	1.17	6310
71	FAM9B (family with sequence similarity 9 member B)	-0.7	migration z between -2 and 2; enough cells	0.7	5316
72	ADAT2 (adenosine deaminase tRNA specific 2)	2	under 3300 nuclei; migration not judged	1.19	942
73	STAT5A (signal transducer and activator of transcription 5A)	-0.08	migration z between -2 and 2; enough cells	0.86	5736

Laid out differently: results already given.
| Target gene | migration robust z-score | migration class with cell-count check | migration relative to mock | nuclei per well, duplicate mean |
| --- | --- | --- | --- | --- |
| NPPC (natriuretic peptide C) | 0.26 | migration z between -2 and 2; enough cells | 0.95 | 4945 |
| ADIPOQ (adiponectin, C1Q and collagen domain containing) | 0.41 | migration z between -2 and 2; enough cells | 0.99 | 5525 |
| GSTA3 (glutathione S-transferase alpha 3) | 1.19 | migration z between -2 and 2; enough cells | 1.04 | 6346 |
| ACTL6B (actin like 6B) | 0.45 | migration z between -2 and 2; enough cells | 1 | 5698 |
